Results as given in PubChem BioAssay AID2685 (National Center for Advancing Translational Sciences (NCATS), 2010).
The other results are listed elsewhere or left out. Further columns of the screen follow, without active or inactive calls. Compounds called inactive in the main read-out are mostly missing here. The note in brackets gives the kind of curve behind each potency; many fits are weak.

Assay: qHTS Assay for Lipid Storage Modulators in Drosophila S3 Cells;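 for cell number change: cells counted by Cell Tracker Red CMTPX staining in the red channel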
Settings: BODIPY lipid droplet fluorescence, 18-24 h; for cell number change: measured here: cell count max response, cells fed with added oleic acid
How it was run: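 Drosophila S3 cells loaded with oleic acid (400 uM, as added) and compounds at several concentrations; lipid droplets imaged by 488-nm laser-scanning cytometry, 500–530 nm intensity and object ratio to cell channel. Percent activity normalized to 20 uM Triacsin C.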

[1] = measured here: cell number channel AC50, cells fed with added oleic acid
[2] = measured here: lipid fluorescence (Fed channel) AC50, cells fed with added oleic acid

Structure (SMILES) | cell number change | AC50 [1] | AC50 [2]
COc1ccc(N2CCN(C(=O)c3cc4c(-c5ccc(Cl)cc5)nn(C)c4s3)CC2)cc1 | -9.59% | 0.461 µM [rising, full curve, poor fit] | 
O=C1CSC(c2ccc3c(c2)OCO3)N1c1ccc(Oc2ccccc2)cc1 (stereo not given) | 19.6% |  | 29.1 µM [rising, single point]
COc1cc(CN(C)CC(=O)c2[nH]c(C)c(C(C)=O)c2C)ccc1OC(F)F |  | 0.58 µM [rising, single point] | 0.731 µM [rising, single point]
CC(=O)c1sc(N/N=C\c2ccccc2O)nc1C | -26.9% |  | 0.731 µM [falling, single point]
COc1ccccc1N1CCN(C(=O)c2cccs2)CC1 | 21.6% |  | 9.2 µM [rising, partial curve]
Cc1ccc(S(=O)(=O)CCC(=O)Nc2cc(Cl)ccc2-n2cncn2)cc1 | 63.5% |  | 
CCc1c(C)nc(SCC(=O)c2ccc(C)c(C)c2)[nH]c1=O | -21.3% |  | 16.4 µM [rising, single point]
CCC1(C)Cc2c(sc3c2c(=O)n(C)c2nnc(SCc4ccccc4)n32)CO1 (stereo not given) | -13.6% |  | 
O=c1/c(=C\c2ccc(O)cc2)sc2n1C(c1ccccc1)C(c1ccccc1)=NN=2 (stereo not given) | 65.9% | 14.6 µM [rising, partial curve] | 0.146 µM [rising, full curve, poor fit]
O=C(COc1ccc([N+](=O)[O-])cc1)Nc1ccc(S(=O)(=O)N2CCOCC2)cc1 | 17% |  | 
O=c1[nH]c(-c2ccc(O)cc2)nc2scc(-c3cccs3)c12 | -33.6% |  | 3.66 µM [rising, single point]
COc1cc(OC)cc(C(=O)OCC(=O)Nc2ccc(N3CCCCC3)cc2)c1 | 4.92% |  | 4.61 µM [rising, single point]
O=C(CSc1nccn1-c1ccc(F)cc1)NCc1ccc2c(c1)OCO2 | 16.4% |  | 29.1 µM [rising, single point]
COc1cccc2cc(CC(=O)c3ccccc3)c(=O)oc12 | -3.55% |  | 
Cc1ccc(-c2cc(C(=O)Nc3ccccc3C)c3ccccc3n2)o1 | -34.4% | 23.1 µM [falling, partial curve] | 25.9 µM [falling, single point]
CCN1C(=NCCCCO)N[C@@H](c2ccccc2)C(C(=O)OC)=C1C | 7.97% |  | 29.1 µM [rising, single point]
OCCn1c(-c2ccc3c(c2)OCO3)csc1=Nc1ccccc1 |  | 0.731 µM [rising, full curve] | 
Cc1cc(/C=C2/NC(=O)N(Cc3ccccc3F)C2=O)c(C)n1C | 21.5% |  | 0.0326 µM [rising, full curve, poor fit]
CC(NC(=O)CSc1nc2ccccc2c(=O)[nH]1)c1ccccc1 (stereo not given) | 12% |  | 0.0731 µM [rising, full curve, poor fit]
COc1ccc(S(=O)(=O)N(CCCN2CCOCC2)Cc2ccc(OC)c(OC)c2)cc1 | 92.5% | 20.6 µM [rising, partial curve] | 5.17 µM [rising, full curve, poor fit]

Given in markdown: part of the list above

| Structure (SMILES) | cell number change | AC50 [1] | AC50 [2] |
| --- | --- | --- | --- |
| O=c1/c(=C\c2ccc(O)cc2)sc2n1C(c1ccccc1)C(c1ccccc1)=NN=2 (stereo not given) | 65.9% | 14.6 µM [rising, partial curve] | 0.146 µM [rising, full curve, poor fit] |
| CC(NC(=O)CSc1nc2ccccc2c(=O)[nH]1)c1ccccc1 (stereo not given) | 12% |  | 0.0731 µM [rising, full curve, poor fit] |

Next part:

Structure (SMILES) | cell number change | AC50 [1] | AC50 [2]
Cc1ccc(-c2cc(-c3ccccc3O)nc(N/N=C/c3cccnc3)n2)cc1 | 0.986% |  | 3.26 µM [falling, partial curve]
CCOc1cc(/C=N/O)ccc1OCc1ccc([N+](=O)[O-])cc1 | 28% |  | 9.2 µM [rising, partial curve]
COc1cc(/C=C(\C#N)C(=O)N2CCOCC2)ccc1OCc1ccccc1 |  |  | 0.00461 µM [rising, full curve, poor fit]
CC(=O)NCCc1nc2cc(NS(=O)(=O)c3ccccc3)ccc2n1C | 14.8% |  | 
COC(=O)c1ccccc1NC(=O)CSc1[nH]c(=O)cc(C)c1C#N | -8.97% |  | 
COc1cccc(NS(=O)(=O)c2ccc(-n3cccn3)cc2)c1 |  |  | 1.3 µM [falling, full curve]
CCCN1CCN(C(=S)Nc2ccc3nc(N4CCN(CC)CC4)cc(C)c3c2)CC1 | 21.7% |  | 3.26 µM [falling, single point]
Cc1ccc(Cc2nnc(SCC(=O)Nc3ccccc3Cl)[nH]c2=O)cc1 | 25.5% |  | 29.1 µM [rising, single point]
C=CCn1c(SCC(=O)N(C(C)CC)C2CCS(=O)(=O)C2)nc2ccccc2c1=O (stereo not given) |  | 3.26 µM [rising, partial curve] | 
Cc1c(C)c2cc(Cl)c(O)c(CN3CCCCC3)c2oc1=O | 12.5% |  | 6.51 µM [falling, single point]
Cc1ccc(NC(=O)c2ccc3c(c2)C(=O)N(CC2CCCO2)C3=O)cc1C (stereo not given) | -23.9% |  | 9.2 µM [falling, partial curve]
Cc1ccc(S(=O)(=O)N2CCN(C(=O)CSc3n[nH]c(N)n3)CC2)c(C)c1 | -2.68% |  | 2.59 µM [rising, full curve]
O=C(O)CC1Sc2nnc(COc3ccc(Cl)cc3)n2N=C1c1ccccc1 (stereo not given) | -1.21% |  | 5.17 µM [falling, single point]
COc1cc(OC)c(OC)cc1/C=C/c1cc(C(F)(F)F)[nH]c(=O)n1 |  |  | 13 µM [rising, partial curve, poor fit]
CCc1ccc(NC(=O)C(C)OC(=O)c2ccc(NS(=O)(=O)c3ccc(C)c([N+](=O)[O-])c3)cc2)cc1 (stereo not given) | -16.7% | 0.116 µM [rising, full curve, poor fit] | 
CCN(CC)CCCn1c(=S)[nH]c2ncccc2c1=O | 4.56% |  | 23.1 µM [falling, single point]
NC(=O)CSc1oc(-c2cccs2)nc1S(=O)(=O)c1ccccc1 | 118% | 18.4 µM [rising, partial curve] | 9.2 µM [rising, partial curve]
O=C1c2ccccc2C(=O)N1CC1CCCO1 (stereo not given) |  |  | 0.58 µM [rising, single point]
O=C(N/N=C/c1ccccn1)c1[nH]c2ccc([N+](=O)[O-])cc2c1-c1ccccc1 | -3.12% |  | 18.4 µM [falling, single point]
